Source: publication PMC13572491
Results are given in words; binding and its absence hold for the method and conditions named. Some results given as binding are weak or reduced against the parent protein; the word gives no strength.

The chains behind the UniProt entries cited, without tags or fusion partners.
UniProt A7SLZ2: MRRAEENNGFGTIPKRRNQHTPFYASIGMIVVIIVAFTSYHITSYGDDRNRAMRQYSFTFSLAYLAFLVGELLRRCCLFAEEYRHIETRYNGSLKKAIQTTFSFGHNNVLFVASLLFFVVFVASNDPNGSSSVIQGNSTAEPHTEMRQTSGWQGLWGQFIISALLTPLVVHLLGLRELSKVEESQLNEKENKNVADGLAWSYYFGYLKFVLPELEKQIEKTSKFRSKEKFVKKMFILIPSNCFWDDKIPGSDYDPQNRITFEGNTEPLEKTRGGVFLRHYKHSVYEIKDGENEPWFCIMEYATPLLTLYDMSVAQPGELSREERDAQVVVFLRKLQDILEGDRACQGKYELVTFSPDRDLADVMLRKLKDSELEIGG

Molecular target: HA-NvSTING stably expressed in MEF Sting-/- (MEF^NvSTING) (Nematostella vectensis) (UniProt A7SLZ2)
Assay: native gel or EMSA; native electrophoresis (NativePAGE 3-12% Bis-Tris, lysis in 25 mM NaCl, 20 mM HEPES pH 7.0, 10% glycerol, 1% DDM) and Western blot of lysates of MEF lines expressing STING homologs, 1 h or 3 h after 2’3’-cGAMP

For “HA-NvSTING stably expressed in MEF Sting-/- (MEF^NvSTING) (from UniProt A7SLZ2 1-377)”, which binding is on record?
Its binding is “binds”.
